Library screening results

From ChEMBL document CHEMBL3988442, “University of Dundee, Small-Polar-MMV Screening Library” (2021).

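Viability assay of Plasmodium falciparum sporozoites; the read-out is not stated. The concentration is filed as 10 mM, unlikely as a test dose, so the dose is not known. Higher reads as lower viability (inferred: compounds with an IC50 in retests scored well above the rest). Strong results were mostly tested again. About 34,000 compounds were tested under these conditions; 0.84% (about 280) showed 50% or more at least once.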

Values are the deposited “Percent Effect”, in %.
The record does not define 0% and 100%; most values in the screen are far below 50% and negative numbers occur (in some assays of this library far below -100).
Compounds were drawn at random from those tested, without regard to their results.
Two or more numbers in one place are separate tests of the same structure; such repeats can differ widely.

SMILES | Percent Effect
Cc1cnc2n1CCN(C)C21CCN(C(=O)CC(C)C)CC1.O=C(O)C(F)(F)F | 1.84%
COc1ccc(C2CCCN2C(=O)NCCCn2cccn2)cc1 (centres undefined) | -14.22%
Cc1nc(C)n(CC2CCCCN2CC(=O)Nc2c(C)n[nH]c2C)n1 (centres undefined) | 5.093%
[H][C@@]12CN(C(=O)[C@H]3CCCO3)C[C@]1([H])C(=O)N(Cc1ccc(OC)cc1)C2 | 8.669%
Cc1noc(C2CCCN(Cn3cc(Br)cn3)C2)n1 (centres undefined) | 2.163%
OCCN1CCCC(c2nccnc2Oc2ccc(F)cc2)C1 (centres undefined) | 2.038%
CCCNC(=O)C(C)n1cc(Br)cn1 (centres undefined) | 2.835%
CCN(CCn1c(=O)oc2ccccc21)CC1CCOCC1 | -15.26% and -11.54% and 5.965%
O=C(O)C(F)(F)F.O=C(O)C(F)(F)F.[H][C@@]12CC(=O)N(Cc3cccc(C)n3)[C@@]1([H])CCN2Cc1ccsc1 | -6.679%
CCCc1cc(=O)[nH]c2nnc(SCC(=O)OC)n12 | 11.57% and 4.811%
CCNCc1ccc(OCc2ccc3c(c2)OCCO3)cc1.Cl | -24.62% and -4.131%
CN(C)C(=O)Cn1c(C2CC2)c(CN2CCOCC2)c2cccnc21 | 2.26%
COC(=O)C(c1cc(F)ccc1F)N(C)C(=O)c1ccnc(C)n1 (centres undefined) | 1.909%
O=C(NCCSc1ccccc1)[C@H]1CNC[C@@H](C(=O)N2CCOCC2)C1 | -20.46%
Cc1ccc(CC(=O)N(CC2CN(C)CCO2)c2nccs2)cn1 (centres undefined) | 13.91%
COCC1CN(S(=O)(=O)N(C)C)Cc2ncn(CC3CC3)c21.O=C(O)C(F)(F)F (centres undefined) | -2.544%
CN(Cc1cn2c(n1)CN(C1CCOC1)CC2)Cc1ccco1.O=C(O)C(F)(F)F.O=C(O)C(F)(F)F (centres undefined) | -5.519%
CNc1ncccc1CN1CCC1c1cc(N)nc(C)n1 (centres undefined) | 3.378%
COc1ccccc1OCCNCc1c(C)nn(C)c1N(C)C.Cl | 9.925%
CC(C)NCc1cc2n(n1)CCN(C1CCCCC1)C2 | -1.643%
O=C(O)c1cc(S(=O)(=O)Nc2cc(F)cc(F)c2)cc2c1OCCO2 | 1.817%
Cc1nc(-c2cccc(C(=O)O)c2)cc(C2CCN(C(C)C)C2)n1 (centres undefined) | -14.84%
COc1ccccc1C(=O)N1Cc2cc(C)ccc2OCC1CN(C)C.Cl (centres undefined) | 4.621%
[H][C@@]12COC[C@]1(CNS(C)(=O)=O)CN(C(=O)C1CC(F)(F)C1)C2 | 3.485%
Cc1ccc(CC(=O)N2CCOC(c3nc(C(C)(C)C)n[nH]3)C2)cn1 (centres undefined) | -4.479%
NC(=O)c1cc(C2CCCN(C(=O)CCc3cscn3)C2)n[nH]1 (centres undefined) | 4.088%
Cc1cnc(C(=O)N2CCc3ncnc(-c4cnn(C)c4)c3CC2)cn1 | 8.333%
O=C(NCc1cc[nH]n1)NCC(c1ccccc1)N1CCOCC1 (centres undefined) | 10.38%
O=C(CCn1ccnc1)N1CCC(c2nnc(-c3ccccn3)o2)CC1 | 18.74%
CC(C)CC(=O)NCCCn1cncn1 | -1.434%
CCN1CCN(C2CCN(Cc3nc4ccccc4o3)CC2)C1=O | 9.942%
Cc1cc(C(=O)N(C)C)nc(C2(C)CCCN2c2ccccc2)n1 (centres undefined) | -5.513%
CS(=O)(=O)NCCN1CCCC1c1noc(C2CC2)n1 (centres undefined) | 13.51%
CC(NC(=O)CSCC#N)c1ccccc1 (centres undefined) | -41.81%
Cc1nnc(NC(=O)NCc2ccnc(N(C)C)c2)s1 | 9.588%
CCCN1CCC(Nc2nc(C)ns2)CC1 | -6.529%
COC(=O)C1CN(Cc2nc(-c3ccccc3)cs2)C[C@@H](C)O1 (some centres undefined) | -5.085%
O=c1c(NCCNCCO)c(N2CCN(Cc3ccccc3)CC2)c1=O | -13.35%
COc1ccc(C(=O)Nc2cnn(CCN3CCOCC3)c2)c(O)c1 | -0.8275%
O=C(c1ccsc1)N1CC[C@@H](N2CCOCC2)[C@@H]1Cc1ccccc1 | -0.2433%
CC(=O)c1cc2ncc(C(=O)NC3CCCC3)cc2[nH]1 | -6.928%
Cc1nc(CN2CCCC(c3cnccn3)C2)cs1 (centres undefined) | -2.072%
CCC(=O)N1CCN(C(=O)NCCOc2ccc3c(c2)CCC3)CC1 | -0.4884%
Cc1cc(N2CCC3(CCCN(CCO)C3=O)C2)nc2ccccc12 (centres undefined) | -12.35%
O=C(O)C(F)(F)F.O=C(O)C(F)(F)F.[H][C@@]12CCC(=O)N(Cc3cccc(C)n3)[C@]1([H])CCN2Cc1ccc(C)s1 | -6.113%
Cc1noc(Cl)c1CC(=O)N1CCCC(n2cccn2)C1 (centres undefined) | -4.808%
NC(=O)C1CCCN1Cc1cccc(NC(=O)c2cccs2)c1 (centres undefined) | -15.69%
CCS(=O)(=O)NCC(=O)N1CCC(c2cc3ccccc3[nH]2)CC1 | -7.007%
Cc1cccc(CN2CCc3cc(C(=O)O)c(N(C)C)nc3CC2)n1.O=C(O)C(F)(F)F.O=C(O)C(F)(F)F | 7.757%
CNC(=O)CCc1cc(C)nc(C2CCN(c3ccccc3)CC2)c1 | 10.1%
O=C(O)C(F)(F)F.O=C(O)C(F)(F)F.[H][C@@]12COC[C@]1(CN(C)C)CN(Cc1ccc3c(c1)OCO3)C2 | 3.544%
CN(C)c1cncc(C2CCN(CCO)CC2)n1 | -3.673%
CC(=O)N1CCC(c2cncc(Oc3ccccc3)n2)CC1 | -16.26%
O=C(O)C(F)(F)F.O=C(O)C(F)(F)F.[H][C@@]12CCC(=O)N(Cc3cccc(C)n3)[C@]1([H])CCN2Cc1ccc(F)cc1 | 6.397%
CCCNC(=O)Cn1cc(-c2ccccc2)cn1 | -2.625%
COc1ccccc1OCC(=O)N1CCN(Cc2noc(C)n2)CC1 | -10.61%
[H][C@]12CCC(=O)N(CC)[C@@]1(C)CCCCN2C(=O)CCn1nccc1C | 10.84%
[H][C@@]12CC[C@H](Oc3cccc(F)c3)[C@]1([H])CN(C(=O)c1ccnnc1)C2 | -8.886%
COCCCN(CCOC)C(=O)Nc1ccc(C)cc1C | 1.015%
COCCc1noc(CN2CCN(CC(O)c3ccccc3)CC2)n1 (centres undefined) | -11.88% and -15.75% and -12.99%
O=S(=O)(c1ccccc1)N1CCCCC1c1cc[nH]n1 (centres undefined) | 20.02%
CN(C)c1ccc(C(=O)NCC2(O)CCOCC2)cc1 | -12.35%
Cc1cc(CNC(=O)N2CCN(Cc3ccccc3)C[C@H]2C)on1 | -2.309%
O=c1oc(-c2ccc(F)cc2)nn1CN1CCCCC1 | 4.619%
CC(C)N1CCC(CNCc2c[nH]nc2C(C)(C)C)C1 (centres undefined) | 11.36%
COc1ncccc1CNC(=O)Nc1cccnc1N1CCCC1 | 8.5%
CN(C)C(=O)c1coc(COc2ccccc2)n1 | -15.22%
O=C(O)C(F)(F)F.[H][C@@]12CCN(Cc3cccs3)C[C@]1([H])O[C@H](C(=O)NC1CCC1)C2 | -19.49%
Cc1ccc(O)c(CNC2CCc3nc(C(C)C)nn3C2)n1 (centres undefined) | -15.9%
O=C(NCc1ccccc1CO)Nc1ccc2c(c1)CCC2 | -10.69%
Cc1cnc(CN(C)Cc2cc3c(cc2OC(F)F)OCO3)o1 | -7.32% and -10.37%
COc1ccc(CNC(=O)NCCc2csc(C)n2)cn1 | 3.922%
CCCc1c(C(=O)N2CCN(c3ncccn3)CC2)cnn1C | -2.964%
COC(=O)[C@H](C)NC(=O)c1cc(-c2cccc(Cl)c2)no1 | -14.32%
Cc1cccc(CN2CCc3onc(CO)c3C2)n1.O=C(O)C(F)(F)F | 16.46%
O=C(CCNC(=O)c1ccoc1)Nc1ccc(F)cc1F | -9.81%
Cc1ccc(NC2CCN(C(=O)c3ccc(F)cc3Cl)CC2)nn1 | -1.615%
Cc1nc(C)n(CC2CN(CCOc3ccccc3C#N)CCO2)n1 (centres undefined) | 5.652%
CCc1n[nH]c(C2CN(C(=O)c3cnn(CC)c3)CCO2)n1 (centres undefined) | 8.673%
Cc1cc(C(=O)N2CCC[C@]3(C[C@@H](OCC4CC4)CO3)C2)no1 | -2.835%
CS(=O)(=O)NCc1cc(-c2cc(F)cc(F)c2)nc(N2CCCC2)n1 | 13.63%
CC(=O)Nc1nc(C(=O)N2CCCC2c2ccc(Br)cc2)cs1 (centres undefined) | 2.463%
O=C(NCCOCC(F)(F)F)c1ccc(-c2ccco2)[nH]c1=O | 2.08%

Once more, the final 6:

{"smiles": "Cc1nc(C)n(CC2CN(CCOc3ccccc3C#N)CCO2)n1", "stereo": "centres undefined", "Percent Effect": 5.652}
{"smiles": "CCc1n[nH]c(C2CN(C(=O)c3cnn(CC)c3)CCO2)n1", "stereo": "centres undefined", "Percent Effect": 8.673}
{"smiles": "Cc1cc(C(=O)N2CCC[C@]3(C[C@@H](OCC4CC4)CO3)C2)no1", "Percent Effect": -2.835}
{"smiles": "CS(=O)(=O)NCc1cc(-c2cc(F)cc(F)c2)nc(N2CCCC2)n1", "Percent Effect": 13.63}
{"smiles": "CC(=O)Nc1nc(C(=O)N2CCCC2c2ccc(Br)cc2)cs1", "stereo": "centres undefined", "Percent Effect": 2.463}
{"smiles": "O=C(NCCOCC(F)(F)F)c1ccc(-c2ccco2)[nH]c1=O", "Percent Effect": 2.08}